From the supplement of paper PMC10849652
The list shows a part of the results.

By UniProt entry, the sequences of proteins in these tests, tags left out. Where a name states a change or a piece, a line headed by the entry shows the natural chain unless it says otherwise.
UniProt O75884: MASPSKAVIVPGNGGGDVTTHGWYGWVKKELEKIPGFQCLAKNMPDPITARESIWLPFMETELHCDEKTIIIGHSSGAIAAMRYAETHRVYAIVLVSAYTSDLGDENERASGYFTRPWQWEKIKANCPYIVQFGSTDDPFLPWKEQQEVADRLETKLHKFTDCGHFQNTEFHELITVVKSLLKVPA
UniProt Q9BYM8: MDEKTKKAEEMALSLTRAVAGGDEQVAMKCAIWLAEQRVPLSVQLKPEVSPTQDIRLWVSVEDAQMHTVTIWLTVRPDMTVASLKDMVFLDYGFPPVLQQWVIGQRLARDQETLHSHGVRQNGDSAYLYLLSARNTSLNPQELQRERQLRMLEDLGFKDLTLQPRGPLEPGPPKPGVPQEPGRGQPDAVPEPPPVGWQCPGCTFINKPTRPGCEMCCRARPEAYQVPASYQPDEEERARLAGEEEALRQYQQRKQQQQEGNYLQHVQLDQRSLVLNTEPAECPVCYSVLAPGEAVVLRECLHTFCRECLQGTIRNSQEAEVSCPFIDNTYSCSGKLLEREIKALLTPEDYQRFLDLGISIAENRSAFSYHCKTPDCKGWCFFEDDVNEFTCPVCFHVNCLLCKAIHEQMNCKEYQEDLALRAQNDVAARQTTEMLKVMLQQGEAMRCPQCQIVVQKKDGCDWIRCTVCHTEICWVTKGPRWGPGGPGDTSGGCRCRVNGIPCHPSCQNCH
UniProt Q15771: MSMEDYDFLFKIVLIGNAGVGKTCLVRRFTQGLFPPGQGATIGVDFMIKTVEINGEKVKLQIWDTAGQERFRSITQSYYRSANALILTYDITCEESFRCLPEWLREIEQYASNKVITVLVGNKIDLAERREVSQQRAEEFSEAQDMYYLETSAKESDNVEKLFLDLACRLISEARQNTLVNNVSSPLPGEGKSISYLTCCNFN
UniProt Q9NS23: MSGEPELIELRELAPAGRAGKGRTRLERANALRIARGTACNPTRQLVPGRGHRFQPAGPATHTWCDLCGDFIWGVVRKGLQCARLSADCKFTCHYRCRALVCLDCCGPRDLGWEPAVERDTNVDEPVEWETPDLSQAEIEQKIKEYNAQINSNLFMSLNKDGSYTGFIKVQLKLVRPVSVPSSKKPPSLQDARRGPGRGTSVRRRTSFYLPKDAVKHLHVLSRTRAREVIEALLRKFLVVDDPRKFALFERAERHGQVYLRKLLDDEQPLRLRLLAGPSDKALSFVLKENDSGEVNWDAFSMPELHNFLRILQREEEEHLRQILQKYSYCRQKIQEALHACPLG
UniProt P20338: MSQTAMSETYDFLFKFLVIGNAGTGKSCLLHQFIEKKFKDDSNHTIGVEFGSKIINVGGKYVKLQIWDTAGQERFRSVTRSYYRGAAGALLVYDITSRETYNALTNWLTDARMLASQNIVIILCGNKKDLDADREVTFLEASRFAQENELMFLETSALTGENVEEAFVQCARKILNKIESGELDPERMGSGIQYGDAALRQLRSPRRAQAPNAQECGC
UniProt Q86U06: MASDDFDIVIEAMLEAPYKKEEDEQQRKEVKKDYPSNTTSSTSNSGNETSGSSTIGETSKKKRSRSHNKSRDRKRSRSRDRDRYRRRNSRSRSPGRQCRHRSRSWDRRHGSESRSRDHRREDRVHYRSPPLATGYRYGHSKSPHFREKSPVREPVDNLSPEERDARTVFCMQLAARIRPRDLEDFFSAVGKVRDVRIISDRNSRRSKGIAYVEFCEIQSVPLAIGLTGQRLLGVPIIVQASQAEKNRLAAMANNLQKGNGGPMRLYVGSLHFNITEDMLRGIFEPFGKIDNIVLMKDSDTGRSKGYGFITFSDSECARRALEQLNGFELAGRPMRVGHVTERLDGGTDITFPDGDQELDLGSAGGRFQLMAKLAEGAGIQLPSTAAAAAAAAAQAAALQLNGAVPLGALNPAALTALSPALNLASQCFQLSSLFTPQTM
UniProt Q15291, whole entry, looked up: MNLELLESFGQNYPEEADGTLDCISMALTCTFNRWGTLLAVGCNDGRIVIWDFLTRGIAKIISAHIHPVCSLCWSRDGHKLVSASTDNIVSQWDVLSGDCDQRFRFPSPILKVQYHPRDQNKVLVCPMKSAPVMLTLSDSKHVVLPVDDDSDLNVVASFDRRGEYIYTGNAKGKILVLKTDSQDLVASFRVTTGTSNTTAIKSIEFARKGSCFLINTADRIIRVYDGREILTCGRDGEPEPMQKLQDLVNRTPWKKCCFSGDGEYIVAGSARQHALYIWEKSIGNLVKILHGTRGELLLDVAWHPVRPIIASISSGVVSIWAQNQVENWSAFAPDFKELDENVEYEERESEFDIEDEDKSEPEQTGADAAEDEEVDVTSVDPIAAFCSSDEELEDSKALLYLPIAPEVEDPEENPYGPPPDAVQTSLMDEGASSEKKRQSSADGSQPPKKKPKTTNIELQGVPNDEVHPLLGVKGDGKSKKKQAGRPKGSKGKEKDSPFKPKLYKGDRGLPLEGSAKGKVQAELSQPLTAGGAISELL
UniProt Q5T8P6: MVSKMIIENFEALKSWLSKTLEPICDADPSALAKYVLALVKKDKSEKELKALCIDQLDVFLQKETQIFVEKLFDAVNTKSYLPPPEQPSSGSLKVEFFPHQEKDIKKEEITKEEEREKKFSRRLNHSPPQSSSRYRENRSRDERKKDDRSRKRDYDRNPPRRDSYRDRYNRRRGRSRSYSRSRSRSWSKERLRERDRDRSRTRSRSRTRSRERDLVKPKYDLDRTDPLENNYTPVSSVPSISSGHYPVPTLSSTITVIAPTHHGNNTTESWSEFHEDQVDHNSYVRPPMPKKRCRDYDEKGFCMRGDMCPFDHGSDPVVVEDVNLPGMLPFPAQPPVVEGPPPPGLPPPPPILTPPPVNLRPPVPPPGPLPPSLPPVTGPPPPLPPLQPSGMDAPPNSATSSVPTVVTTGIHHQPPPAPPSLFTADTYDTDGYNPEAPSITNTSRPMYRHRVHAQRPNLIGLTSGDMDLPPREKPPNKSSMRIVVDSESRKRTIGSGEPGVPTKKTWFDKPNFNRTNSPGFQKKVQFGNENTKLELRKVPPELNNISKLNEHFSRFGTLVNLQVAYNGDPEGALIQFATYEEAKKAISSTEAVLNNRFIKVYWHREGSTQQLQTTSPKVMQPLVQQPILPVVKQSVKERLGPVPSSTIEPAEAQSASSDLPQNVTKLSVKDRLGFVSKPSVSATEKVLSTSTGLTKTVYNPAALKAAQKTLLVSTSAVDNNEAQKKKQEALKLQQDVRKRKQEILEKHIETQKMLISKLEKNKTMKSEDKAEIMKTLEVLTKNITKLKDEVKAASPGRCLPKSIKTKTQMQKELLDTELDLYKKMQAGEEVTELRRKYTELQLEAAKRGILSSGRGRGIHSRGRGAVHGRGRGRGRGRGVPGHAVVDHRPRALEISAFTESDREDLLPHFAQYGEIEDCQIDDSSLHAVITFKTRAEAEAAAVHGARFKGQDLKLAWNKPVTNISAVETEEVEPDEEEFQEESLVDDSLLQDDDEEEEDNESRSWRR
UniProt Q9H6Z4: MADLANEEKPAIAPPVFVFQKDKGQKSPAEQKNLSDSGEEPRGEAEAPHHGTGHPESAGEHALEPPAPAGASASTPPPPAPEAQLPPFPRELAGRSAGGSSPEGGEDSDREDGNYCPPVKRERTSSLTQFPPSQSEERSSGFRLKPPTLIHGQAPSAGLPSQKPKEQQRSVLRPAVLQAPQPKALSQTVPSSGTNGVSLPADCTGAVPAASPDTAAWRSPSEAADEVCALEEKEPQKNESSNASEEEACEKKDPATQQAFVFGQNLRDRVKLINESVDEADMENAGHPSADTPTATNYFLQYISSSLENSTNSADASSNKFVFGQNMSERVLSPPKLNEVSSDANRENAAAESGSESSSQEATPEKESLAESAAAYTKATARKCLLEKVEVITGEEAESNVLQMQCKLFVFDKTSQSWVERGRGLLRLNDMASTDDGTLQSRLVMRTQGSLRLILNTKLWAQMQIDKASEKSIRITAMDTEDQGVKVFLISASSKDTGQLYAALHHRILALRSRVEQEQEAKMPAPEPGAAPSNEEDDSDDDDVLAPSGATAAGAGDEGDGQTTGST
UniProt Q9H477: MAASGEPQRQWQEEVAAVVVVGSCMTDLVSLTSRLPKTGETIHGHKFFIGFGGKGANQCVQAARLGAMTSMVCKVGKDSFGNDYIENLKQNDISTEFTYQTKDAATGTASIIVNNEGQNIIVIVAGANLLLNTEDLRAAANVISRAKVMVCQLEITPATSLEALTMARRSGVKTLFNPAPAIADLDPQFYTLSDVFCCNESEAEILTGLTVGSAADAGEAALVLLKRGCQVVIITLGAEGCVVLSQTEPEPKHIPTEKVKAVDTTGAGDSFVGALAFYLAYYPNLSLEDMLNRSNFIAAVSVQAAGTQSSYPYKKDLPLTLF
UniProt Q96D70: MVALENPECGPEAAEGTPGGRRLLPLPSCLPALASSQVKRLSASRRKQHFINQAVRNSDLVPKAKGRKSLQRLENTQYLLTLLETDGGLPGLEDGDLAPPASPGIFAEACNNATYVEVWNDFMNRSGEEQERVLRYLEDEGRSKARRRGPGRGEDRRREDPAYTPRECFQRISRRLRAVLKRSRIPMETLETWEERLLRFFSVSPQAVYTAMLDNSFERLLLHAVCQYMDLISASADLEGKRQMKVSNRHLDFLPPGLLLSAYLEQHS

Tests used:
Experiment in all cases: log2 fold change, soluble protein after heating vs DMSO (PISA); higher = thermal stabilisation; K562 cells, 10 uM, 30 min; active = over 0.2 and 3.5 SD of the protein, either way, in both replicates (recomputed)
[1] = compound: CC1=C2C(=CC=C1)N=C(N(C2=O)C3=CC=CC=C3C)CN4C=NC5=C(N=CN=C54)N
How it was run: (§1)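 K562 cells at 2×10^6 cells/mL were treated for 30 min with 10 μM compound, and aliquots were heated for 3 min over 48°C-58°C before pooling. Extraction used PBS with 0.5% NP-40 at 4°C, and soluble protein was the supernatant after 21,000xg for 90 min, measured by TMTpro 16plex LC-MS/MS with channel sums equalised. Thermal stability values, relative to control samples and from duplicates, are log2 fold changes.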

[2] = compound: CC1=C(SC2=C1C(=N[C@H](C3=NN=C(N32)C)CC(=O)N)C4=CC=C(C=C4)Cl)C
How it was run: as §1

[3] = compound: Cc1sc2c(c1C)C(c1ccc(Cl)cc1)=N[C@@H](CC(=O)OC(C)(C)C)c1nnc(C)n1-2
How it was run: as §1

[4] = compound: c1ccc([C@@H]2C[C@H]2NC2CCNCC2)cc1
How it was run: as §1

[5] = compound: C1=CC=C(C=C1)[C@H](COC2=CC3=C(C=C2)NC(=O)N3)NC(=O)C4=CC=CN(C4=O)CC5=CC(=C(C=C5)F)F
How it was run: as §1

Measured: log2 fold change

RBBP9 (UniProt O75884)
inactive: [1] -0.066

RBCK1 (UniProt Q9BYM8)
inactive: [2] 0.092 | [1] 0.195 | [3] -0.139 | [4] -0.11

RAB30 (UniProt Q15771)
inactive: [5] 0.086 | [2] -0.061 | [1] -0.051 | [4] 0.041

RASSF1 (UniProt Q9NS23)
inactive: [1] 0.367

RAB4A (UniProt P20338)
inactive: [5] 0.055 | [2] 0.047 | [1] 0 | [3] 0.001 | [4] 0.008

RBM23 (UniProt Q86U06)
inactive: [5] -0.199 | [2] 0 | [1] 0.211 | [4] 0.315

RBBP5 isoform 2 (UniProt Q15291)
inactive: [5] 0.041 | [1] -0.098 | [3] -0.055

RBM26 isoform 2 (UniProt Q5T8P6)
inactive: [5] -0.068 | [2] 0.016 | [1] 0.144 | [3] -0.011 | [4] 0.012

RANBP3 isoform 2 (UniProt Q9H6Z4)
inactive: [5] -0.023 | [3] 0.071

2 entries picked at random from those above:
RBM26 isoform 2 (UniProt Q5T8P6)
inactive: [5] -0.068 | [2] 0.016 | [1] 0.144 | [3] -0.011 | [4] 0.012

RAB4A (UniProt P20338)
inactive: [5] 0.055 | [2] 0.047 | [1] 0 | [3] 0.001 | [4] 0.008

Following part:

RBKS (UniProt Q9H477)
inactive: [1] -0.06

R3HDM4 (UniProt Q96D70)
inactive: [5] -0.107 | [1] -0.194 | [3] 0.089
